{
  "source": "patent US20110092427A1",
  "about": "“POLYPEPTIDE AND PHARMACEUTICAL COMPOSITION CONTAINING THE POLYPEPTIDE” (National University Corporation Hokkaido Universit y, priority 2008, published 2011)",
  "test_system": "psoriasis patient-derived skin grafted onto the back of a mouse",
  "experiment": "External application to psoriasis patient skin grafted onto SCID mice",
  "type": "in vivo",
  "conditions": "psoriasis skin graft, 70 μL of 1 mM solution applied daily for 14 days; FIG. 6, p<0.05",
  "excerpt": "The hair in the area of approximately 1 cm^2 in the back of 7 to 8 week-old SCID mice (Clea Japan, Inc.) was shaved, and the full-thickness skin was removed while keeping the vessel plexus intact on the fascia overlying back muscles. The skin of affected area of a psoriasis patient that was sampled under the approval of the ethical code was washed with PBS containing 1% penicillin, 1% streptomycine, and 1% amphotericin B, and each piece of the skin thus treated was separately transplanted onto the skin-removed area of the above-described mice.\nSeven days after transplantation, 70 μL of each of solutions prepared by dissolving polypeptides P5-1, P5-2, and P5-3 into phosphate buffered saline (PBS) (each 1 mM) was applied to the grafted sites of three mice daily for 14 days. […] Further, as a control, the same volumes of PBS solution containing a polypeptide having a random sequence and PBS without polypeptide were applied. After 14 days, a part of the grafted skin was collected and embedded in an optimal cutting temperature (OCT) reagent (Sakura finetechnical Co., Ltd.) and then frozen in liquid nitrogen, which was then prepared as 5 μm-thick sections. […]",
  "note": "At least one peptide structure holds a part that was inferred or is arguable (an end, a ring closure or a residue). Peptide text beside a SMILES is read from it.",
  "data": [
    {"smiles": "CC(C)C[C@H](NC(=O)[C@@H](N)Cc1c[nH]cn1)C(=O)N[C@H](C(=O)N[C@@H](Cc1ccccc1)C(=O)N1CCC[C@H]1C(=O)N[C@@H](CC(C)C)C(=O)N[C@@H](CC(=O)O)C(=O)O)[C@@H](C)O", "note": "[polypeptide P5-1] (H-HLTFPLD-OH)", "values": [
      {"measurement": "thickness of the grafted skin (HE-stained sections)", "result": "significantly reduced"}
    ]}
  ]
}
